Test results published in article PMC3799434, “RNA polymerase III-specific general transcription factor IIIC contains a heterodimer resembling TFIIF Rap30/Rap74” (Nucleic Acids Research, 2013).
These are yes or no findings as the source states them, for the method shown. Some binding calls cover weakened binding; strength is not graded here. Sequences can lack the tags named with a protein.

Columns and labels:
[1] = target: T1, Sfc1 (S. pombe TFIIIC τA subunit), full length (Schizosaccharomyces pombe) (UniProt O14229); assay: co-purification after co-expression; His-tagged Sfc1 and untagged Sfc7 co-expressed in E. coli; Ni-NTA, TEV digestion, second Ni-NTA, anion exchange (Mono Q), gel filtration (Superdex S200)
T1 sequence: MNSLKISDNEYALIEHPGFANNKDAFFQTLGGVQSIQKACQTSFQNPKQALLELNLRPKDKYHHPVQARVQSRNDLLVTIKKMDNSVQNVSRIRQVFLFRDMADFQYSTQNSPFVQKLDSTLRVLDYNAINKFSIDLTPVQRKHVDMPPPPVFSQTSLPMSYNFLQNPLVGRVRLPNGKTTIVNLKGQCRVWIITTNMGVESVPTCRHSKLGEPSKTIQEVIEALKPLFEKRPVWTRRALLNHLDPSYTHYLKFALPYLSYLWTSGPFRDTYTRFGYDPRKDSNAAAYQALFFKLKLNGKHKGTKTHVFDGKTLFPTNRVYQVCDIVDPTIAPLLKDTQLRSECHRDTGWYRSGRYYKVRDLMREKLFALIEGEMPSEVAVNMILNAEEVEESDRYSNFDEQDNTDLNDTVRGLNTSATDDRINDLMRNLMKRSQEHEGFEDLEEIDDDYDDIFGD

[2] = target: T2, Sfc1_(1-110(K48A,Q49A)) (Schizosaccharomyces pombe) (UniProt O14229); assay: crystal structure; hanging-drop vapour diffusion at 4°C; 0.1 M HEPES pH 7, 1.4 M ammonium sulphate; Hg derivative, SAD, 2.4 Å; both purified
T2 sequence: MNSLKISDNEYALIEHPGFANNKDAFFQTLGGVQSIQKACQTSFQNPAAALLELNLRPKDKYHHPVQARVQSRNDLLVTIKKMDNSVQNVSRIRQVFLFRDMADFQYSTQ

[3] = target: T3, Sfc1-NT/Sfc7 heterodimer (Schizosaccharomyces pombe) (UniProt O14229+A6X980); assay: SEC; gel filtration of the Sfc1-NT/Sfc7 heterodimer with the larger Sfc1 fragment; both purified
T3 sequence 1: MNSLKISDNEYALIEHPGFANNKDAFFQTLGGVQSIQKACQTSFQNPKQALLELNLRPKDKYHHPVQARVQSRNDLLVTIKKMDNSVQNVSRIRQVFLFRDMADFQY
T3 sequence 2: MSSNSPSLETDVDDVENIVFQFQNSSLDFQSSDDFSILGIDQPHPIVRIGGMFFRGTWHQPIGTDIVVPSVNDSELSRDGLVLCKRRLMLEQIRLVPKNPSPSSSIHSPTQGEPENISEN

[4] = target: T3, Sfc1-NT/Sfc7 heterodimer (Schizosaccharomyces pombe); assay: ion-exchange chromatography; fragments from limited proteolysis of the purified Sfc1/Sfc7 heterodimer, separated by ion-exchange chromatography; both purified

B1: Sfc7 (S. pombe TFIIIC τA subunit), full length (protein, UniProt A6X980 1-120)
chain: T3 sequence 2
binding [1]: binds

B2: Sfc7_(1-101) (domain or fragment, UniProt A6X980 1-101)
chain: MSSNSPSLETDVDDVENIVFQFQNSSLDFQSSDDFSILGIDQPHPIVRIGGMFFRGTWHQPIGTDIVVPSVNDSELSRDGLVLCKRRLMLEQIRLVPKNPS
binding [2]: binds

B3: larger protease-resistant Sfc1 fragment (residues 186-396) (domain or fragment, UniProt O14229 186-396)
chain: KGQCRVWIITTNMGVESVPTCRHSKLGEPSKTIQEVIEALKPLFEKRPVWTRRALLNHLDPSYTHYLKFALPYLSYLWTSGPFRDTYTRFGYDPRKDSNAAAYQALFFKLKLNGKHKGTKTHVFDGKTLFPTNRVYQVCDIVDPTIAPLLKDTQLRSECHRDTGWYRSGRYYKVRDLMREKLFALIEGEMPSEVAVNMILNAEEVEESDRY
binding [3]: no binding
binding [4]: no binding
